Results published in publication PMC11124914.
No constants are given. Whether binding was seen depends on the method and setting. In cells and extracts the contact can be indirect. Some entries that bind do so weakly or less than the wild type. Where a sequence is shown, tags or fusion partners need not be part of it.

The chains behind the UniProt entries cited, without tags or fusion partners.
UniProt P63279: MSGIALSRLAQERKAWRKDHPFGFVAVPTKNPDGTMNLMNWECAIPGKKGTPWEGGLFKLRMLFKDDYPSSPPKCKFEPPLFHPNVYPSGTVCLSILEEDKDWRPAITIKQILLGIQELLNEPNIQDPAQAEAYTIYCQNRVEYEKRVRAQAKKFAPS

Target: T1, human organic anion transporter 3 (OAT3), myc-tagged (human) (UniProt Q8TCC7)
T1 sequence: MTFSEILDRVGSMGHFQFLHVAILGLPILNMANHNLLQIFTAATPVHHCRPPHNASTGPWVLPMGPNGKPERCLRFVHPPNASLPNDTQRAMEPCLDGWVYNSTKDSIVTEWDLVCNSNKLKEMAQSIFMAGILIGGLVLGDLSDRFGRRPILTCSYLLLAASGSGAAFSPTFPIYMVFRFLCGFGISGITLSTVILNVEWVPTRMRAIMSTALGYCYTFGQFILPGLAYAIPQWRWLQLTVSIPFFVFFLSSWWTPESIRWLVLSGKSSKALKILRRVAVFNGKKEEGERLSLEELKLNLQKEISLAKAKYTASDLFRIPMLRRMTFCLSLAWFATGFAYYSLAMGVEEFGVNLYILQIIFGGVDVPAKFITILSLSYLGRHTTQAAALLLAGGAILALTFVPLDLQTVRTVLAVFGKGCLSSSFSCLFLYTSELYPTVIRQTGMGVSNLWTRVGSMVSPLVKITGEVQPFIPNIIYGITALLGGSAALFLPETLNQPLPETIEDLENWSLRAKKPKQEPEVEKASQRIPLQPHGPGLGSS
Assay: co-IP; OAT3 immunoprecipitated with an anti-myc antibody on protein G resin from lysates (~1000 ug total protein, 4 °C overnight) of OAT3-expressing cells treated with or without topotecan (1 µM, 12 h); blots with anti-Ubc9 or anti-SENP2

binding: binds
Substance: SUMO-conjugating enzyme E2 (Ubc9), endogenous (from UniProt P63279 1-158)
